Assay results taken from PubChem BioAssay AID624291 (National Center for Advancing Translational Sciences (NCATS), 2012).
In all, about 350,000 compounds went through this assay and about 220 (0.063%) were called active. The shares of active, inactive and inconclusive entries below differ from those in the screen. The call rests on the fitted dose curve; in most records, active means well fitted activation curve with a large enough effect; inconclusive means small, poorly fitted or top-dose-only effect; inactive means no such curve, though single readings can be large or run the other way. Potencies beside an inconclusive call are fits to weak or partial responses and may not hold up.
Potency means the concentration at half of the fitted maximal effect.

Assay: qHTS for Activators of Integrin-Mediated Alleviation for Muscular Dystrophy; further: nearly all actives have a fitted effect of over 60% in size
Details: alpha7betagal myoblasts, beta-gal FDG fluorescence, 48 h; series mostly up to 38.3 µM
How it was run: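 Alpha7betagal+/- myoblasts (passage 13) were plated 16-24 hr, then exposed to compounds (1:260 dilution of DMSO stock) for 48 hours at 37C. After MPER lysis, β-galactosidase reporter activity was read as FDG fluorescence (ex 480/em 540) after 30 minutes.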
For `Cc1c(C(=O)NCCN2CCOCC2)sc2nc(-c3ccc(F)cc3)cn12`, the Potency was inconclusive: 12.6 µM [activator, partial curve, poor fit]. With `O=C1CC(N2CCN(c3ccc(C(=O)c4ccc(F)cc4)cc3)CC2)C(=O)N1` (centres undefined) the Potency was “inactive”. In the case of `Oc1ccccc1OCc1nc2ccccc2s1`, the Potency was inconclusive: 5.01 µM [activator, single point]. For `COc1cc(CN2CCCC(CO)(Cc3cccc(Cl)c3)C2)cc(OC)c1O` (centres undefined), the Potency was inconclusive: 28.2 µM [activator, single point]. For `O=C(Nc1ccccc1[N+](=O)[O-])c1cncc(Br)c1`, the Potency was inconclusive: 1.12 µM [activator, single point]. With `Cn1cc(S(=O)(=O)NC(c2ccccc2)c2ccccc2)c(=O)n(C)c1=O` the Potency was inconclusive: 11.2 µM [activator, partial curve, poor fit]. With `CC(=O)c1sc(-c2ccccc2)cc1N` the Potency was “inactive”. In the case of `O=C(O)CN1C(=O)c2ccc(C(=O)c3ccccc3)cc2C1=O`, the Potency was inconclusive: 3.55 µM [activator, single point]. In the case of `COc1ccc(NC(=O)C(CC(C)C)NC(=O)C2CCC(C)CC2)c(OC)c1` (centres undefined), the Potency was inconclusive: 12.6 µM [activator, single point]. In the case of `COc1ccc(N(CC(=O)N2CCN(c3ccccc3F)CC2)S(=O)(=O)c2c(C)n[nH]c2C)cc1`, the Potency was inconclusive: 3.16 µM [activator, single point]. For `N#C/C(=C\c1ccc[nH]1)C(=O)c1ccccc1`, the Potency was inconclusive: 1.26 µM [activator, partial curve, poor fit]. In the case of `CCN(C(=O)COC(=O)CNC(=O)c1ccc(Cl)cc1Cl)c1c(N)n(Cc2ccccc2)c(=O)[nH]c1=O`, the Potency was inconclusive: 2 µM [activator, partial curve, poor fit]. In the case of `COc1ccc(CC(=O)Nc2ccccc2C(C)=O)cc1S(=O)(=O)N1CCOCC1`, the Potency was “inactive”. For `CC[n+]1c(/C=C/Nc2ccccc2)sc2ccccc21`, the Potency was “inactive”. In the case of `CN(C)c1nc(/C=C(\C#N)C(N)=O)c(Cl)n1-c1ccc(F)cc1`, the Potency was “inactive”. For `Cc1ccc(N2C(=O)C3NN=C(C(=O)OCc4ccccc4)C3C2=O)cc1` (centres undefined), the Potency was inconclusive: 3.16 µM [activator, full curve]. With `O=[N+]([O-])c1ccc(O)c(/C=N/Nc2ccccc2[N+](=O)[O-])c1` the Potency was inconclusive: 2.51 µM [activator, single point]. For `Cc1cccc(OCC(O)CN2CCN(c3ccccn3)CC2)c1C` (centres undefined), the Potency was inconclusive: 5.01 µM [activator, single point]. For `CC(=O)c1sc(NC(=O)COc2ccc(Cl)cc2Cl)nc1C`, the Potency was inconclusive: 1 µM [activator, partial curve, poor fit].
